In PMC9354775:
Read-outs that look alike come from different tables or passages of the source. No constants are given. Whether binding was seen depends on the method and setting. For part of these data: Binding seen in cells or lysates may run through a third protein. Some results given as binding are weak or reduced against the parent protein; the word gives no strength. For part of these data: Tags and fused reporters may be left off the sequences shown. Blank lines part the entries; values can stand above or below the molecule they belong to.

The chains behind the UniProt entries cited, without tags or fusion partners.
UniProt Q6EVK6: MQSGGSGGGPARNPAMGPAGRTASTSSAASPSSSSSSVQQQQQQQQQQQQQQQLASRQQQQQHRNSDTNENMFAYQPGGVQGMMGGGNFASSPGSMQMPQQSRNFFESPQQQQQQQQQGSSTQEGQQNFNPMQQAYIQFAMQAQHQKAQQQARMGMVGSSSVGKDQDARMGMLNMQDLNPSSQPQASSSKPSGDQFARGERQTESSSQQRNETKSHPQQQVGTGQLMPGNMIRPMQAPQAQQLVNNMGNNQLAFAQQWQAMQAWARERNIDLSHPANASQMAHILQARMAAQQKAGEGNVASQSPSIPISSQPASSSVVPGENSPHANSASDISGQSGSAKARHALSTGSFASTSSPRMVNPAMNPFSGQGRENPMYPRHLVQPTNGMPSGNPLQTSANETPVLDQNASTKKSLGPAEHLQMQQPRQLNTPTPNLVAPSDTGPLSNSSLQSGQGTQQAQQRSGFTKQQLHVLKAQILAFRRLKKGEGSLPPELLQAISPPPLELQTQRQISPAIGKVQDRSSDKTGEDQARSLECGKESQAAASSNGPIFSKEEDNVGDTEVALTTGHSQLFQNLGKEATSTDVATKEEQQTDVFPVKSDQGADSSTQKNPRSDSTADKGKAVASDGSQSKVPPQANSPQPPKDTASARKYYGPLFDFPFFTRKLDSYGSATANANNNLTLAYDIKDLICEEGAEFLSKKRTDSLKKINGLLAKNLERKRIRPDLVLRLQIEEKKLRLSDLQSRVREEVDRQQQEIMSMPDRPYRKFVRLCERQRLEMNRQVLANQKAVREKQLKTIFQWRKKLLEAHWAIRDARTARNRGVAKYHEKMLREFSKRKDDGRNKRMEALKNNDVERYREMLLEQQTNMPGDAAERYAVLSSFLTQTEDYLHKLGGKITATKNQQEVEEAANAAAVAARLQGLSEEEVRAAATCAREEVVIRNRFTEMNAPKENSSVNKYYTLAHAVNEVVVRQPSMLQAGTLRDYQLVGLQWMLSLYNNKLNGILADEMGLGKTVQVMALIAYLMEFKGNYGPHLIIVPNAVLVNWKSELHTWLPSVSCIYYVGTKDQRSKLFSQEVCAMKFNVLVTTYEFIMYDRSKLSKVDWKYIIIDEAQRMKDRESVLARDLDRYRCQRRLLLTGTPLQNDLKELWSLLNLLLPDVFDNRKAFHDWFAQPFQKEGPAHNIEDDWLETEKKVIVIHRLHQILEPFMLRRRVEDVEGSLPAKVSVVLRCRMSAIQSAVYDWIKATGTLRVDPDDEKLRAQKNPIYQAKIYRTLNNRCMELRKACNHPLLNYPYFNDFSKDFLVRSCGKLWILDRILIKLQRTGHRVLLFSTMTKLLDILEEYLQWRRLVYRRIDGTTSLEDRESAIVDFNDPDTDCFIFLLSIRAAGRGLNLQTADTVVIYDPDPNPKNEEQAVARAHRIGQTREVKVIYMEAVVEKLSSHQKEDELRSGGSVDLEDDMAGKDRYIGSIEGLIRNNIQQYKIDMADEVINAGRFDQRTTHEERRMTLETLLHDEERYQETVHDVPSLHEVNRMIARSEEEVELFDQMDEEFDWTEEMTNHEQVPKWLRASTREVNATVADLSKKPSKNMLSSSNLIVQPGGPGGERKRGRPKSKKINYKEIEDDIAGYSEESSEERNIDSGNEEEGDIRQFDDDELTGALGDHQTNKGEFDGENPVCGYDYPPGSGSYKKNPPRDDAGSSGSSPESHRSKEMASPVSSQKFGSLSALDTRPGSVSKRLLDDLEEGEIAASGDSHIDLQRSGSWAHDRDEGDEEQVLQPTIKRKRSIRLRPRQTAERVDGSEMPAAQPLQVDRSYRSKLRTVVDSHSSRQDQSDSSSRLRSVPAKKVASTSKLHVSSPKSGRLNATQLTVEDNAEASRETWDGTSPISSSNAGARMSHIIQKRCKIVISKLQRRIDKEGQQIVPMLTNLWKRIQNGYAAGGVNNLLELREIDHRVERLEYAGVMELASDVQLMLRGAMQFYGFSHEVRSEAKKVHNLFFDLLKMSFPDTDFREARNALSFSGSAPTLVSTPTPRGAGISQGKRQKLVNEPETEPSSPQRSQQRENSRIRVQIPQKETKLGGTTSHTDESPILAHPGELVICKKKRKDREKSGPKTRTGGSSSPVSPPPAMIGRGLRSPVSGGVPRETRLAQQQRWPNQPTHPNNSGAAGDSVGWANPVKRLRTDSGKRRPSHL
UniProt Q42525: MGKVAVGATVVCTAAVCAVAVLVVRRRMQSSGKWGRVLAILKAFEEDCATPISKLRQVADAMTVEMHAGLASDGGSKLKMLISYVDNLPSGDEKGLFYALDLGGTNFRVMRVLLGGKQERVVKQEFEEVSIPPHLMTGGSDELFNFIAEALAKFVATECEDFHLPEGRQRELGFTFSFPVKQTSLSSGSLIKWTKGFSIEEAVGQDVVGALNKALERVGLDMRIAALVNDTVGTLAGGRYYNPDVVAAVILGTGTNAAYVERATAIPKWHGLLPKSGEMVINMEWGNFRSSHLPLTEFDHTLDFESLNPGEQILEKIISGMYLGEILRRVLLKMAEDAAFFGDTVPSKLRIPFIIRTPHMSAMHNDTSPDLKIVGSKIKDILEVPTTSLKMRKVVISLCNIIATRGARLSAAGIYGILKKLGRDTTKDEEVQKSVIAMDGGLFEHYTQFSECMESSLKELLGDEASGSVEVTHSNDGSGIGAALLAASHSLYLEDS

What was measured:
[1] = molecular target: full-length UPL3 bait (A. thaliana) (UniProt Q6WWW4); experiment: two-hybrid; GAL4-based two-hybrid system 3 (Clontech); baits in pGBKT7-BD, preys in pGADT7-AD; growth on SD/-LTH or SD/-ALTH
[2] = molecular target: T1, BD-UBP12 (A. thaliana) (UniProt Q9FPT1); experiment: as above
T1 sequence: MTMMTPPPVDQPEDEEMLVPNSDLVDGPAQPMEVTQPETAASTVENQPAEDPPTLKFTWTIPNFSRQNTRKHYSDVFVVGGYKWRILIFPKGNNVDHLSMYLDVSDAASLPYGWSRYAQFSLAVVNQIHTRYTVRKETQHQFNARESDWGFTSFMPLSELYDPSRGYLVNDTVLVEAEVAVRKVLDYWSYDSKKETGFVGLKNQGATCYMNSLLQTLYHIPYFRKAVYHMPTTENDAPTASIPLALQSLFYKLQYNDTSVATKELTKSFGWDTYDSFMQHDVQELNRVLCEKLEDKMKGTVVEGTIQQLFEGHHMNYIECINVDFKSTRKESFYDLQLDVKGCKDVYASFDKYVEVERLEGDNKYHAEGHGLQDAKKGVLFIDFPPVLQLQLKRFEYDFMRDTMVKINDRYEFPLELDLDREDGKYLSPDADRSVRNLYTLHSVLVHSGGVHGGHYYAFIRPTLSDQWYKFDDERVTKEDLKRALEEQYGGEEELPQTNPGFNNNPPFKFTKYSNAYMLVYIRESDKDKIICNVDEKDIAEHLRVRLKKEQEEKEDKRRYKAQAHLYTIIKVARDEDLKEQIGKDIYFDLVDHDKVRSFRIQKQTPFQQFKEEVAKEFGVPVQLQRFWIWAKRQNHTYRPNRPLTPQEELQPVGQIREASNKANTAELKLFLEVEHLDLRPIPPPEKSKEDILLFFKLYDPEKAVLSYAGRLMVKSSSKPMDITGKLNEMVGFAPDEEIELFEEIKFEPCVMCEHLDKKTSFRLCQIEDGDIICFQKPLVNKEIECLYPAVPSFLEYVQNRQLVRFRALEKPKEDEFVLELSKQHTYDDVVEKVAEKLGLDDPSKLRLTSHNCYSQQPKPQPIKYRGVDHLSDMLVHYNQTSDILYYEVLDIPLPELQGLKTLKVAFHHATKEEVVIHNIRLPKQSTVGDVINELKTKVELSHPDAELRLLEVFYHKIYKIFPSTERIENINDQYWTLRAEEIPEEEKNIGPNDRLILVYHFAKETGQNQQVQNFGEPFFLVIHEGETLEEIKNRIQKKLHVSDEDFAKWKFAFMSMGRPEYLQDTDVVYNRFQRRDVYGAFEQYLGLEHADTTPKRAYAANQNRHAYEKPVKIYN

[3] = molecular target: UPL3-GFPn (A. thaliana) (UniProt Q6WWW4); experiment: split reporter; BiFC with YN (pCAMBIA1300-N1-YFPN) and YC (pCAMBIA1300-N1-YFPC) fusions co-delivered to Arabidopsis epidermal cells by Agrobacterium-mediated injection; signals in the nucleus; empty vector as negative control
[4] = molecular target: T2, UBP12-GFPn (A. thaliana) (UniProt Q9FPT1); experiment: as above
T2 sequence: T1 sequence

[5] = molecular target: full-length UPL3 bait (A. thaliana) (UniProt Q6WWW4); experiment: two-hybrid; GAL4-based two-hybrid system 3 (Clontech); baits in pGBKT7-BD, preys in pGADT7-AD; growth on SD/-LTH or SD/-ALTH; remark: listed apart in the source
[6] = molecular target: T3, N-terminal fragment (470 aa) of UPL3 containing armadillo repeats (A. thaliana) (UniProt Q6WWW4); experiment: as above
T3 sequence: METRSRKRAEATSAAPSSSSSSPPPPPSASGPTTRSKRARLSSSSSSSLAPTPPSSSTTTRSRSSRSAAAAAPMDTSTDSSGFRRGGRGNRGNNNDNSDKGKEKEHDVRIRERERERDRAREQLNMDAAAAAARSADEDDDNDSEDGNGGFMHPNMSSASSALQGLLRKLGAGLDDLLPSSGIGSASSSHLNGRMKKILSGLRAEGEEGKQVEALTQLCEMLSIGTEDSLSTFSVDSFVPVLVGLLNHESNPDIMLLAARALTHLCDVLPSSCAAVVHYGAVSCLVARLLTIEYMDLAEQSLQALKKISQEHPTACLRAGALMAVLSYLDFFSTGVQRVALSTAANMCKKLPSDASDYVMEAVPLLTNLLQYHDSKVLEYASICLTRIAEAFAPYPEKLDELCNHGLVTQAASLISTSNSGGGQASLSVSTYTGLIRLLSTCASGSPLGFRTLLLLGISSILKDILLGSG

Molecule: BRM (two-hybrid prey) (from UniProt Q6EVK6 1-2193)
- binding [1]: binds weakly
- binding [2]: binds weakly

Molecule: HXK1 (two-hybrid prey) (from UniProt Q42525 1-496) (enzyme)
- binding [1]: binds weakly
- binding [2]: no binding

B1: N-terminal fragment (470 aa) of UPL3 containing armadillo repeats (domain or fragment, UniProt Q6WWW4 1-470)
chain: T3 sequence
- binding [5]: no binding
- binding [6]: binds

B3: PPC2-GFPc (enzyme, UniProt Q5GM68 1-963)
chain: MAARNLEKMASIDAQLRLLAPGKVSEDDKLIEYDALLLDRFLDILQDLHGEDVREFVQECYEVAADYDGNRNTEKLEELGNMLTSLDPGDSIVVTKSFSNMLSLANLAEEVQIAYRRRIKKLKKGDFADEASATTESDIEETLKRLLQLNKTPEEVFDALKNQTVDLVLTAHPTQSVRRSLLQKFGRIRDCLTQLYAKDITPDDKQELDEALQREIQAAFRTDEIRRTPPTPQDEMRAGMSYFHETIWKGVPKFLRRVDTALKNIGINERVPYNAPLIQFSSWMGGDRDGNPRVTPEVTRDVCLLARMMAANLYFSQIEDLMFEMSMWRCNEELRVRAERQRCAKRDAKHYIEFWKQIPANEPYRAILGDVRDKLYNTRERARQLLSSGVSDVPEDAVFTSVDQFLEPLELCYRSLCDCGDRPIADGSLLDFLRQVSTFGLALVKLDIRQESERHSDVLDAITTHLGIGSYKEWSEDKRQEWLLSELSGKRPLFGPDLPKTEEVADVLDTFKVISELPSDSFGAYIISMATAPSDVLAVELLQRECGITDPLRVVPLFEKLADLESAPAAVARLFSIEWYRNRINGKQEVMIGYSDSGKDAGRLSAAWQLYKTQEELVKVAKEYGVKLTMFHGRGGTVGRGGGPTHLAILSQPPDTIHGQLRVTVQGEVIEQSFGEEHLCFRTLQRFTAATLEHGMHPPVSPKPEWRVLMDEMAIIATEEYRSVVFKEPRFVEYFRLATPELEYGRMNIGSRPSKRKPSGGIESLRAIPWIFAWTQTRFHLPVWLGFGGAFKRVIQKDSKNLNMLKEMYNQWPFFRVTIDLVEMVFAKGDPGIAALYDRLLVSEELQPFGEQLRVNYQETRRLLLQVAGHKDILEGDPYLRQRLQLRDPYITTLNVCQAYTLKQIRDPSFHVKVRPHLSKDYMESSPAAELVKLNPKSEYAPGLEDTVILTMKGIAAGMQNTG
- binding [3]: binds
- binding [4]: binds

B4: UPL5 (two-hybrid fusion) (enzyme, UniProt Q9SU29 1-873)
chain: MTLSRSSADDSTNNANRSYSAVAGTDNKRKRDEDSSDYVGVAESLEMLKKQEIDADHMAASAQQTLISWRSGENSRSLSSSGECSSSNRPESTRLQIFVRMMSGGKTIVIHAEKYDTVEKLHQRIEWKTKIPALEQRVIYKGKQLQRENSLTYYSIEQDASLQLVARMQSTEHPVAWQTIDDIMYTISRMYKGENLQSNINEKIVTFFAMIPVESDESIAKYLNIFSNSSVPAALVMLYASSLERNKSCAKSSVKLFLSNCVALPKNQKNYCLPIVLEFCKLLRKVCPDQKLYVTCRNTLGSMLETFDNPHGVYNDQYETFGVEIFPFFTELTGLLLNELAQNSGPSFCDFQKVSSFWQQLRKVIELKVAFPIPIVLPMQSTALEAEIRHLHRLFGSLLTTMDLCMCRVESSLADKEVGNSETMSSSWSQYLSILKIINSMSNIYQGAKGQLAVMLNKNKVSFSALVVKFAKRGDDHQWIFEYKEATNFEARRHLAMLLFPDVKEDFEEMHEMLIDRSNLLSESFEYIVGASPEALHGGLFMEFKNEEATGPGVLREWFYLVCQEIFNPKNTLFLRSADDFRRFSPNPASKVDPLHPDFFEFTGRVIALALMHKVQVGVLFDRVFFLQLAGLKISLEDIKDTDRIMYNSCKQILEMDPEFFDSNAGLGLTFVLETEELGKRDTIELCPDGKLKAVNSKNRKQYVDLLIERRFATPILEQVKQFSRGFTDMLSHSVPPRSFFKRLYLEDLDGMLRGGENPISIDDWKAHTEYNGFKETDRQIDWFWKILKKMTEEEQRSILFFWTSNKFVPVEGFRGLSSKLYIYRLYEANDRLPLSHTCFYRLCIPRYPTITLMEQRLRLIAQDHVSSSFGKW
- binding [6]: no binding

Second part, the molecule after the results:

- binding [3]: binds
- binding [4]: binds
Molecule: BRM-GFPc (from UniProt Q6EVK6 1-2193)

- binding [2]: binds
Molecule: UPL3 (prey against BD-UBP12) (from UniProt Q6WWW4 1-1888) (enzyme)

- binding [3]: binds
- binding [4]: no binding
Molecule: HXK1-GFPc (from UniProt Q42525 1-496) (enzyme)

- binding [3]: binds
B2: UBP12-GFPc (enzyme, UniProt Q9FPT1 1-1116)
chain: T1 sequence
